In the supplement of paper PMC12823440, “Inhibitors supercharge kinase turnover through native proteolytic circuits” (Nature, 2025):
Where a name gives a salt, the structure may show the parent alone. Some of the results follow. The calls rarely recur for the same compound in another form.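 Kinases, fused to nanoluciferase, were expressed in K562 cells; luminescence was measured every 4 h from 2 to 18 h as percent of control (DMSO = 100%, positive control = 0%). A time point is decreased if signal falls significantly (2 sigma). Hits were called by the authors by a rule that is not shown; the count of time points alone does not decide it.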

Amino acid sequences for entries named in this document (tags omitted).
UniProt Q00535, whole entry, looked up: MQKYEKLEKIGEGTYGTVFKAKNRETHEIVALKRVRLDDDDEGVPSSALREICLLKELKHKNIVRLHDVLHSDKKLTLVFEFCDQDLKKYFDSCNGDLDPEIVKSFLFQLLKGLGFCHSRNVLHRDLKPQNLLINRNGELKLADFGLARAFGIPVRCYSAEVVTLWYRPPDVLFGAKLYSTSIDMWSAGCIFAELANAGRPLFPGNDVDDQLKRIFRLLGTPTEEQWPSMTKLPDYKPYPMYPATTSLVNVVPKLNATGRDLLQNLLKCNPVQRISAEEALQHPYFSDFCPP

What follows are molecules tested against CDK5 (UniProt Q00535) (assay: number of time points (of 5) at which kinase-Nluc abundance scored as decreased, DMSO-normalised (count); higher = more persistent destabilization). Conditions: K562; 2-18 h.

Structure (SMILES) | number of time points
N#Cc1ccc2[nH]c(O)c(-c3ccc(CN4CCOCC4)cn3)c2c1 (10 µM) | 0
CCN(CC)CCCCNc1ncc2cc(-c3cc(OC)cc(OC)c3)c(NC(=O)NC(C)(C)C)nc2n1 (10 µM) | 0
Oc1ccc(-c2nc(-c3ccc(F)cc3)c(-c3ccncc3)[nH]2)cc1 (2.5 µM) | 0
O=C1NCCc2[nH]c(-c3ccnc(-c4cnc5ccccc5c4)c3)cc21 (10 µM) | 0
Cc1cc(N2CCOCC2)cc2[nH]c(-c3c(NC[C@@H](O)c4cccc(Cl)c4)cc[nH]c3=O)nc12 (10 µM) | 0
COc1cc(OC)cc(-c2cc3cnc(N)nc3nc2NC(=O)NC(C)(C)C)c1 (10 µM) | 0
Cc1ccc(NC(=O)Nc2nnc(Sc3ncnc4cc(OCCCN5CCOCC5)ccc34)s2)cc1 (10 µM) | 0
N#C/C(=C\c1ccc(O)c(O)c1)C(=O)NCCCc1ccccc1 (10 µM) | 0
Cc1cccc([C@@H](CO)NC(=O)[C@@H](C)N2Cc3ccc(-c4nc(NC5CCOCC5)ncc4Cl)cc3C2=O)c1 [ERK1/2 inhibitor 1] (10 µM) | 0
CCOc1ccn(-c2ccc(F)cc2)c(=O)c1C(=O)Nc1ccc(Oc2ccnc(N)c2Cl)c(F)c1 (10 µM) | 0
O=c1cc(N2CCOCC2)oc2c(-c3ccccc3)cccc12 (10 µM) | 0
O=c1oc2c(O)c(O)cc3c(=O)oc4c(O)c(O)cc1c4c23 [Ellagic acid] (10 µM) | 0
C=CC(=O)Nc1ccc2ncnc(Nc3cccc(Br)c3)c2c1 (10 µM) | 0
Cc1c(Cn2c(C)nc3c(C(=O)O)cc(N4CCOCC4)cc32)cccc1C(F)(F)F (10 µM) | 0
Cc1c[nH]c2nccc(Oc3c(F)cc(Nc4cc(Cl)nc(N)n4)cc3F)c12 (10 µM) | 0
CC(C)CC(=O)Nc1n[nH]c2c1CN(C(=O)C1CCN(C)CC1)C2(C)C (2.5 µM) | 1
CCN(CCO)CCCOc1ccc2c(Nc3cc(CC(=O)Nc4cccc(F)c4)[nH]n3)ncnc2c1 [Barasertib-HQPA] (10 µM) | 0
N#C/C(=C\c1ccc(O)c(O)c1)C(=O)NCc1ccccc1 (10 µM) | 0
COc1nccc(-c2c(-c3ccc(F)cc3)ncn2C2CCC(O)CC2)n1 (centres undefined) (10 µM) | 0
O=c1c(-c2ccc(O)cc2)coc2cc(O)cc(O)c12 [Genistein] (10 µM) | 0

In another format: entries from further up.
C=CC(=O)Nc1ccc2ncnc(Nc3cccc(Br)c3)c2c1 (10 µM)
  number of time points: 0
Cc1c(Cn2c(C)nc3c(C(=O)O)cc(N4CCOCC4)cc32)cccc1C(F)(F)F (10 µM)
  number of time points: 0

The list continues:

Structure (SMILES) | number of time points
CCOc1cc2ncc(C#N)c(Nc3ccc(OCc4ccccn4)c(Cl)c3)c2cc1NC(=O)/C=C/CN(C)C [Neratinib] (10 µM) | 0
CN1CCC(Nc2ncc3ncnc(Nc4ccc(F)c(Cl)c4)c3n2)CC1 [Falnidamol] (10 µM) | 0
O=c1c(O)c(-c2ccc(O)c(O)c2)oc2cc(O)cc(O)c12 [Quercetin (dihydrate)] (10 µM) | 0
COc1ccc(C=C(C#N)c2cccnc2)cc1OC (10 µM) | 0
Nc1ncnc2c1c(-c1ccc(Oc3ccccc3)cc1)cn2C1CCCC1 (2.5 µM) | 0
COc1cc2nc(C)nc(N[C@H](C)c3cc(N)cc(C(F)(F)F)c3)c2cc1O[C@H]1CCOC1 (10 µM) | 0
N#CC(=Cc1ccc(O)c(O)c1)C(=O)NCc1ccccc1 (mixture of isomers) (10 µM) | 0
O=C1Cc2c([nH]c3ccc(Br)cc23)-c2ncccc2N1 [1-Azakenpaullone] (10 µM) | 0
COc1cc2c(Nc3ccc(Br)cc3F)ncnc2cc1OCCn1ccnn1 (10 µM) | 0
CNc1nc(-c2ccc3c(N)n[nH]c3c2)cc(N2C[C@@H](C(=O)NC3CCCCC3)CC[C@H]2C)n1 (10 µM) | 0
Cc1cc(F)c(C(=O)Nc2cccc(-c3nncn3C(C)C)n2)cc1-n1cnc(C2CC2)c1 [Selonsertib] (10 µM) | 0
COc1cc(C)c(Sc2cnc(NC(=O)c3ccc(CNC(C)C(C)(C)C)cc3)s2)cc1C(=O)N1CCN(C(C)=O)CC1 (centres undefined) (2.5 µM) | 0
CCN(CC)CCCCNc1ncc2cc(-c3c(Cl)cccc3Cl)c(NC(=O)NC(C)(C)C)nc2n1 (2.5 µM) | 1
COc1cc(C=C(C#N)C(N)=O)cc(CSc2nc3ccccc3s2)c1O (10 µM) | 0
C[C@]1(O)C[C@@H](c2nc(-c3ccc4ccc(-c5ccccc5)nc4c3)c3c(N)nccn32)C1 [Linsitinib] (2.5 µM) | 0
CCN1CCN(c2ccc(Nc3cc(N(C)C(=O)Nc4c(Cl)c(OC)cc(OC)c4Cl)ncn3)cc2)CC1 [Infigratinib] (10 µM) | 0
COc1c(CC=C(C)C)c(O)cc2oc(=O)c(-c3ccc(O)cc3O)cc12 [Glycycoumarin] (10 µM) | 0
Cc1cc(C(=O)Nc2cccc(C(=O)Nc3cccc(C(F)(F)F)c3)c2)on1 (10 µM) | 0
Cn1c(=O)c(Oc2ccc(F)cc2F)cc2cnc(NC3CCOCC3)nc21 [R1487 (Hydrochloride)] (10 µM) | 0
